{"source": "patent US20210108199A1", "about": "“Treatment for aggressive cancers by targeting C9ORF72” (The Trustees of Columbia University in the City of New York, priority 2017, published 2021)", "key": {"[1]": {"tested_on": "U2OS cells", "assay": "Vacuolation after C9 KD in U2OS cells", "type": "cell-based, human"}, "[2]": {"tested_on": "SH-SY-5Y, MCF7, MCF10A, HEP-G2, SK-HEP-1, HT1080", "assay": "Vacuolation after C9 KD in other cell types", "type": "cell-based"}}, "note": "The name of at least one read-out is uncertain.", "data": [{"substance": "siC9: siRNA targeting C9 mRNA: UUAAUGAAACAAUAAUCACUC (SEQ ID NO:631; sense) and GUGAUUAUUGUUUCAUUAAUC (SEQ ID NO:632; antisense) (listed as RNA, chemistry not given here)", "values": [{"measurement": "vacuolation upon C9 KD", "setting": "[1]", "value": "reproduced vacuolation"}, {"measurement": "vacuolation upon C9 KD", "setting": "[2]", "value": "Only the osteosarcoma U2OS cell line reproduced vacuolation"}]}]}
